ChEMBL document CHEMBL4368861 (Medchemcomm, 2018)

Assay: in vitro
Conditions: human

## CN1CCCC1CCO[C@](C)(c1ccccc1)c1ccc(Cl)cc1 (stereo partly specified)
  selectivity ratio: 7.1
